These are yes or no findings as the source states them, for the method shown.
Key:
[1] = target: HypBA2 CΔ789 (residues 33–1154), SeMet-labeled (Bifidobacterium longum JCM 1217) (UniProt E8MGH9); experiment: SEC; gel filtration on HiLoad 16/60 Superdex 200 pg in 20 mM Tris-HCl (pH 8.0), 250 mM NaCl, 2 mM CaCl2, 1 mL/min; compared with molecular mass markers; both purified
[2] = target: HypBA2 CΔ1049 (residues 33–894), native (Bifidobacterium longum JCM 1217) (UniProt E8MGH9); experiment: as above

B1: HypBA2 CΔ789 (residues 33–1154), SeMet-labeled (domain or fragment, UniProt E8MGH9 33-1154)
chain: ADAPVIKNADVAYPSFKGSDDPMKTAANNTTYNPAVSYLQETFDNDVKNLAGIDTDHDFWIDKILTRTGAQPTGKGTNDKGAYSYEGSDGNNYLFTRGRAAYMYTHTPNQLGFVGDTAYWDQTSRSGFTVTVNADGSNQTLNEDASQRKQTPSYFTSLFQTGGKSLKIKEVKYITYNNVMVANLTVESTQDRDVTLTTASPFAAEGADGATELTGRVNVKNNLTTIYPRFSANNQDGSNWIVSGGKLTSTLSLKANEPQTVKIQLGLIANELPDSTKEYEARYTGDLKDAAASYKDSVTTYNKWWVDNAPYVDTPEDNIDKTVVYRWWLSRFNMLDANMPGNTFQYPTSIEGVLGYNNQIVLTSGMFMMDTKWFRNPEYSYGTWLSAGDTAKKSKAGYYYYHDNPGDPANWNHSYTQYITRAGWDSYKVHGGPSTVAEELADQGAEDVQGLLASKSEPDNNDNQNNNDNSLIDWSWWSMTGNDADAVSFSEPGRSGQRMDRADGSANMWANANAAAQAYKAAGDTANAEKMQAIADKIQKEVTTELWDKSDNLLKHKWLNDGAFAKYKEINNYYPYSEGLMPTGNEDYNKALRLFEDSNEFPIFPFFTANQADKAALNFPGSNNFSIINAQPLLQVYSAGIRNYDAAKNGYITNEQFKKLLYWVAFAHYQGGDNNYPDQNEFWNEDNNNVGDVNGDGVINNLDKNLDAAQNGGKITYRSWIHHTQLGTTNWTMVEDVAGMVPREDNKIELNPIEIPGWNYFTVNNLRYHDQDVSIVWDKDGSHYGGPAGYSLYVGGKLAFTSDKLAHLIYDPAAGTVEVKDDSSAQVTVGAEAVKNVKAANQVTFNADQRVTDLFAKSGTNVDSASKSTTNVAKDADVTGTTYAEKDTNYPAKNAVDGKTVMESFWGTKGSENKTDTLNIKFKDGKQKIDDIRLYFYQSSSSQTISGYAEPANYKLEYQKDDGTWAPIADQVRTPNYAGANYNRIQFTPVETTTIRVTFTPQAGMAVGVKEIEAYNTGIKADGTSENQTPQVDAYVSSSTSSGAKLVGTVKDDGLPAEGDVTTTWSQVSGPEGGTAKFVDASAASTTVTFNKEGDYVLKLTASDGEKEGSKEITVHGIPSDG
modifications: selenomethionine (SeMet-labeled)
B1 was tested, and the binding [1] was “no binding”.

B2: HypBA2 CΔ1049 (residues 33–894), native (domain or fragment, UniProt E8MGH9 33-894)
chain: ADAPVIKNADVAYPSFKGSDDPMKTAANNTTYNPAVSYLQETFDNDVKNLAGIDTDHDFWIDKILTRTGAQPTGKGTNDKGAYSYEGSDGNNYLFTRGRAAYMYTHTPNQLGFVGDTAYWDQTSRSGFTVTVNADGSNQTLNEDASQRKQTPSYFTSLFQTGGKSLKIKEVKYITYNNVMVANLTVESTQDRDVTLTTASPFAAEGADGATELTGRVNVKNNLTTIYPRFSANNQDGSNWIVSGGKLTSTLSLKANEPQTVKIQLGLIANELPDSTKEYEARYTGDLKDAAASYKDSVTTYNKWWVDNAPYVDTPEDNIDKTVVYRWWLSRFNMLDANMPGNTFQYPTSIEGVLGYNNQIVLTSGMFMMDTKWFRNPEYSYGTWLSAGDTAKKSKAGYYYYHDNPGDPANWNHSYTQYITRAGWDSYKVHGGPSTVAEELADQGAEDVQGLLASKSEPDNNDNQNNNDNSLIDWSWWSMTGNDADAVSFSEPGRSGQRMDRADGSANMWANANAAAQAYKAAGDTANAEKMQAIADKIQKEVTTELWDKSDNLLKHKWLNDGAFAKYKEINNYYPYSEGLMPTGNEDYNKALRLFEDSNEFPIFPFFTANQADKAALNFPGSNNFSIINAQPLLQVYSAGIRNYDAAKNGYITNEQFKKLLYWVAFAHYQGGDNNYPDQNEFWNEDNNNVGDVNGDGVINNLDKNLDAAQNGGKITYRSWIHHTQLGTTNWTMVEDVAGMVPREDNKIELNPIEIPGWNYFTVNNLRYHDQDVSIVWDKDGSHYGGPAGYSLYVGGKLAFTSDKLAHLIYDPAAGTVEVKDDSSAQVTVGAEAVKNVKAANQVTFNADQRVTDLFAKSGTNV
With B2 the binding [2] was “no binding”.

Reference: article PMC7263609
